This is one part of the list. These are further read-outs of the screen, such as a control signal, another cell line or another target. No call is given for them. Compounds called inactive in the main read-out are mostly missing here. The note in brackets gives the kind of curve behind each potency; many fits are weak.
Test: qHTS Assay for Lipid Storage Modulators in Drosophila S3 Cells;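 as to cell number change: cells counted by Cell Tracker Red CMTPX staining in the red channel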
Conditions: BODIPY lipid droplet fluorescence, 18-24 h; for cell number change: measured here: cell count max response, cells fed with added oleic acid
Summary of the method: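 Drosophila S3 cells loaded with oleic acid (400 uM, as added) and compounds at several concentrations; lipid droplets imaged by 488-nm laser-scanning cytometry, 500–530 nm intensity and object ratio to cell channel. Percent activity normalized to 20 uM Triacsin C.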

[1] = measured here: lipid fluorescence (Fed channel) AC50, cells fed with added oleic acid
[2] = measured here: cell number channel AC50, cells fed with added oleic acid

SMILES | cell number change [%] | AC50 [1] | AC50 [2]
COc1ccc(OC)c(-c2cc(C(F)(F)F)c3c(n2)sc2c(O)cc(=O)[nH]c23)c1 | -0.617 | 23.1 µM [rising, single point] | 
CN(C)c1ccc(/C=N/NC(=O)CCc2nc3ccccc3[nH]2)cc1 | -43.8 |  | 23.1 µM [falling, single point]
Nc1ccc(C#Cc2ccc3c(=O)c4ccccc4oc3c2)cc1 | -0.971 |  | 
CCn1c(=S)[nH]c2scc(-c3cccs3)c2c1=O | -9.28 | 29.1 µM [rising, single point] | 
CCCCN(CC)CCCNC(=O)c1cn(C)c2ccc(S(=O)(=O)N(C)C3CCCCC3)cc2c1=O | -6.87 | 6.51 µM [rising, single point] | 
Cc1ccc2cc(C)c(SCC(=O)Nc3ccc(S(=O)(=O)N4CCCC4)cc3)nc2c1 | -24.7 | 13 µM [falling, partial curve, poor fit] | 
Cc1cccc(C)c1NC(=O)CNC(=O)c1ccc(S(=O)(=O)NCc2ccco2)cc1 | 8.03 |  | 
COc1cccc(-c2cc(C(F)(F)F)n3nc(C(=O)Nc4c(C)n(C)n(-c5ccccc5)c4=O)cc3n2)c1 | 91.1 | 29.1 µM [rising, single point] | 
Cc1ccc(C2=NCCn3nc4cc(C(F)(F)F)ccc4c32)cc1 | -49.2 |  | 16.4 µM [falling, single point]
COC(=O)c1ccc(NC(=O)Cc2ccccc2)cc1 | -3.3 | 25.9 µM [rising, partial curve] | 
C=CCNc1oc(/C=C/c2ccccc2)nc1C#N | -80.8 |  | 20.6 µM [falling, partial curve]
O=C1C=C(c2ccc(Cl)c(C(F)(F)F)c2)C[C@@H](c2ccc(Cl)cc2)C1 | -27.7 | 7.31 µM [falling, partial curve, poor fit] | 
CCOc1ccc(/C=C/C(=O)NC2CCCCC2)cc1 | 8.03 | 29.1 µM [rising, single point] | 
CC(=O)Oc1ccc2oc(C)c(C(=O)N3CCOCC3)c2c1 | 10.4 | 0.116 µM [falling, full curve, poor fit] | 
COc1ccc(S(=O)(=O)N2CCCCCC2)cc1NC(=O)CN1C(=O)NC(C)(c2ccc(C)cc2)C1=O (stereo not given) | -35.7 | 8.2 µM [falling, partial curve] | 25.9 µM [falling, single point]
O=C(CC(=O)Nc1ccccc1C(F)(F)F)Nc1ccccc1C(F)(F)F | 27.9 |  | 
O=S(=O)(/C=C/c1ccccc1)Oc1ccccc1 | 8.32 | 6.51 µM [falling, single point] | 
CCc1nnc(NC(=O)CCC(=O)NCCc2ccccc2)s1 | 24.5 | 16.4 µM [rising, partial curve] | 
Cc1ccccc1NC(=O)CSc1nnc(-c2ccoc2C)n1CCc1ccccc1 | -7.03 |  | 
O=C(Cn1ncc2c3ccccc3n(Cc3ccccc3F)c2c1=O)NCCN1CCOCC1 | 12.9 |  | 
O=S(=O)(Nc1ccc2c(c1)OCCO2)c1cccs1 | -82.2 |  | 32.6 µM [falling, partial curve, poor fit]
CCOc1ccc(NC(=O)NC(=O)N(C(C)C)S(C)(=O)=O)cc1 | 0.528 |  | 6.51 µM [rising, single point]

SMILES | cell number change [%] | AC50 [1] | AC50 [2]
Cc1ccccc1N(Cc1cc(=O)[nH]c2ccccc12)C(=O)C(C)C | 7.91 | 0.461 µM [falling, full curve, poor fit] | 
CCOC(=O)C1CCN(C(=O)COc2ccc3c(c2)OCO3)CC1 | 10.4 | 16.4 µM [rising, partial curve, poor fit] | 
O=C(CN(Cc1ccccc1)C(=O)CNS(=O)(=O)c1ccc(F)cc1)NCc1ccco1 | -2.56 | 0.116 µM [rising, single point] | 
CC(=O)c1ccc(S(=O)(=O)N2CCN(CCOc3ccc(Br)cc3)CC2)cc1 | -15.1 |  | 2.31 µM [falling, single point]
O=[N+]([O-])c1cccc(CN2CCN(c3cccc4[nH]ccc34)CC2)c1 | 18.1 | 9.2 µM [rising, partial curve] | 
O=C(Nc1ccc2oc(-c3ccncc3)nc2c1)c1ccc2c(c1)OCO2 | 33.9 |  | 16.4 µM [rising, single point]
CCCCNC(=O)Nc1nnc(-c2ccccc2)o1 | 74.6 |  | 11.6 µM [rising, partial curve]
Cc1oc(-c2cccc(Cl)c2)nc1CS(=O)(=O)CC(=O)NCCN1CCCC1 | -8.93 |  | 
Cc1ccc(SCC(=O)NCC2COc3ccccc3O2)cc1 (stereo not given) | -2.48 | 6.51 µM [falling, single point] | 
Cc1csc(NC(=O)CCC(=O)N(CC(=O)NC2CCCC2)Cc2ccccc2)n1 | -8.12 | 29.1 µM [rising, single point] | 
O=S(=O)(c1ccc(Cl)cc1)N1CCNCC1 | 1.08 |  | 
CCOC(=O)c1cnn(CCOC(=O)C2CC2)c1NC(=O)C1CC1 | 2.65 |  | 
Cc1cc2nc(-c3ccccn3)c(-c3ccccn3)nc2cc1C | 3.18 |  | 
Cc1ccc(-c2nnn(CC(=O)NC3CC4CCC3C4)n2)cc1 (stereo not given) |  | 4.61 µM [rising, partial curve] | 
COc1ccccc1N=c1sc2ccccc2n1C | 27.2 | 6.51 µM [falling, partial curve, poor fit] | 
COc1cccc(CNc2nc3nc(C)c(Cl)c(C)n3n2)c1 |  | 6.51 µM [rising, single point] | 
CC(C)CCNC(=O)Cc1ccc(Nc2nc(=S)[nH]c3ccccc23)cc1 |  |  | 0.146 µM [falling, single point]
CCCCCC1CC(COc2ccccc2)OC1=O (stereo not given) | 15.5 | 0.13 µM [rising, full curve, poor fit] | 
COc1ccc(/C(O)=C2\C(=O)C(=O)N(Cc3ccco3)C2c2cc(OC)ccc2OC)cc1 (stereo not given) |  | 0.146 µM [rising, full curve, poor fit] | 
COc1cc(C)nc(N2CCC(C(=O)NCC3CCCO3)CC2)n1 (stereo not given) | 11.6 |  | 
CC(C)(C)C(=O)COC(=O)CNC(=O)c1ccc(Oc2ccccc2)cc1 | -14.3 |  | 
Cc1cc(C)cc(OCC(=O)OCC(=O)c2c(N)n(C)c(=O)n(C)c2=O)c1 | -14 | 25.9 µM [falling, partial curve] | 

3 compounds picked at random from those above, as already listed:
SMILES | cell number change [%] | AC50 [1] | AC50 [2]
O=C(Nc1ccc2oc(-c3ccncc3)nc2c1)c1ccc2c(c1)OCO2 | 33.9 |  | 16.4 µM [rising, single point]
Cc1ccccc1NC(=O)CSc1nnc(-c2ccoc2C)n1CCc1ccccc1 | -7.03 |  | 
CC(=O)Oc1ccc2oc(C)c(C(=O)N3CCOCC3)c2c1 | 10.4 | 0.116 µM [falling, full curve, poor fit] | 

Following part:

SMILES | cell number change [%] | AC50 [1] | AC50 [2]
O=C(O)CN1C(=O)/C(=C\c2cc(Br)ccc2OCc2ccccc2F)SC1=S | 8.62 |  | 
O=C(c1ccc(S(=O)(=O)N2CCCCCC2)cc1)N1CCN(c2ccccc2)CC1 | 4.96 | 8.2 µM [rising, partial curve] | 
Cc1ccc2cc(CCNC(=O)c3ccc(S(=O)(=O)N4CCOCC4)cc3)c(=O)[nH]c2c1 | -11.1 |  | 
Cc1ccc(C(=O)N(CCN(C)C)CC2CCCN(Cc3ccccc3F)C2)cc1C (stereo not given) | 5.47 | 6.51 µM [falling, single point] | 
Cn1c(=O)c(=O)n(C)c2cc(N3CCCC3)c(NS(=O)(=O)c3ccc(Cl)cc3)cc21 | -23.9 | 13 µM [falling, partial curve] | 
CCC(c1ccccc1)c1nnc(NC(=O)c2ccco2)s1 (stereo not given) | 37.8 | 18.4 µM [rising, single point] | 18.4 µM [rising, single point]
CCCn1c(=O)[nH]c(=O)c2c1nc(-c1ccc(C#N)cc1)n2CCOC | 19.8 | 0.58 µM [rising, single point] | 
CC(=O)c1cccc(NC(=S)NC(=O)c2ccc(Cl)cc2)c1 |  | 6.51 µM [rising, single point] | 3.26 µM [rising, single point]
Cc1cccc(-c2nc(Nc3cccc(O)c3)c3ccccc3n2)c1 | -46.2 | 18.4 µM [falling, single point] | 13 µM [falling, partial curve]
O=C(Nc1ccc(Oc2cccc(C(F)(F)F)c2)nc1)c1cccs1 | -15.3 | 5.17 µM [falling, full curve] | 
CCOc1ccc(C(=O)NCCCCNC(=O)c2ccc(OCC)cc2)cc1 | -7.14 | 29.1 µM [falling, single point] | 
CC(=O)Nc1ccc2nc3ccccc3nc2c1 | 9.81 | 0.461 µM [rising, single point] | 
Cc1c(Cl)cccc1NC(=O)Nc1ccccc1C(N)=O | -10.9 | 0.411 µM [falling, single point] | 0.461 µM [falling, partial curve, poor fit]
COC(=O)c1ccc(CNCC(O)COc2ccc(-c3ccccc3)cc2)cc1 (stereo not given) | 11.7 |  | 
Cc1ccc(C(C)C)c(OCC(=O)Nc2ccc3c(c2)nc(CN2CCCC2)n3C)c1 | 100 |  | 29.1 µM [rising, single point]
Cc1cc(C)c2c(n1)sc1c(=O)n(Cc3ccccc3Cl)nnc12 |  | 0.731 µM [rising, partial curve] | 0.58 µM [rising, partial curve]
CCc1cc(=O)oc2c(C)c(OCC(=O)NCCCN3CCCC3=O)ccc12 | 0.382 |  | 6.51 µM [falling, single point]
COCCn1cnc2c1c(=O)n(Cc1cc(C(C)=O)ccc1OC)c(=O)n2Cc1ccccc1 | 3.15 | 29.1 µM [rising, single point] | 0.58 µM [rising, single point]
O=C(Cn1nnc2ccccc2c1=O)N1CCOCC1 | 19.7 | 1.64 µM [rising, full curve, poor fit] | 
CC1(C)Cc2nc3sc4c(=O)[nH]cnc4c3cc2CS1 | -16.6 | 0.731 µM [falling, single point] | 

From PubChem BioAssay AID2685 (National Center for Advancing Translational Sciences (NCATS), 2010)
